# Test results taken from publication PMC12040169 (PLOS Biology, 2025).
# The other results are listed elsewhere or left out.
# System: T1, CTL2-GFP (C. trachomatis L2/434/Bu, GFP-expressing)
# T1 construct: L2/434/Bu, GFP-expressing
# Design: species or system HeLa; Intracellular C. trachomatis growth in HeLa cells, bulk GFP fluorescence relative to DMSO
# Conditions: bulk GFP, single well; 28.5 h, 10 µM; inhibitor
row,Compound,% of control remaining
1,Cc1cccc(Nc2nc(N)nc(CSc3nccn3C)n2)c1 [CBK266105],105.617%
2,CC(Cc1ccccn1)NC(=O)c1cc(-c2ccccc2F)no1 (stereo not shown) [CBK281421],123.875%
3,CSc1nc2ccc(S(=O)(=O)N3CCCC3)cc2s1 [CBK268400],105.671%
4,CCCCc1cc(=O)oc2cc(OCC(=O)O)ccc12 [CBK264205],116.873%
5,CN(C)CCCNc1oc(/C=C/c2cccs2)nc1C#N [CBK269317],153.917%
6,Cc1cccc(OCC2CCCN(C(=O)NCCc3cnn(C)c3)C2)c1 (stereo not shown) [CBK307358],131.386%
7,CC(=O)NC[C@H]1CN(c2ccc3c(c2)CCSC3)C(=O)O1 [CBK018505],7.8756%
8,COc1cccc(CN2CCN(CCc3ccccc3)CC2)c1 [CBK126454],108.792%
9,CCCc1ccc(S(=O)(=O)Nc2ccc(C(=O)N(CC)CC)cc2)cc1 [CBK034403],90.9018%
10,CS(=O)(=O)N1CCc2c([nH]c3ccccc23)C12CCN(Cc1ccccc1)C2 (stereo not shown) [CBK059460],109.205%
11,Cc1ccc(S(=O)(=O)NC2c3cccc4cccc(c34)C2Sc2nnc(N)s2)cc1 (stereo not shown) [CBK265835],147.371%
12,O=C(CCNc1n[nH]c(=O)[nH]c1=O)N/N=C\c1ccccc1F [CBK263093],100%
13,Cc1ccc(-c2csc3ncnc(NCCCc4n[nH]c(N)c4C#N)c23)cc1 [CBK297100],122.569%
14,CC(OC(=O)c1ccc(O)cc1)C(=O)Nc1ccc(Cl)c(Cl)c1 (stereo not shown) [CBK264281],94.1245%
15,Cc1csc(Sc2nc3ccccc3nc2C(F)(F)F)n1 [CBK093775],122.925%
16,NC1=NNC2=C(c3ccc(F)cc3)NNN12 [CBK093659],106.314%
17,O=C(CN1CCOCC1)Nc1c2c(nc3ccccc13)N(c1ccccc1)CC2 [CBK111136G],108.319%
18,COc1ccc(Cl)cc1C(=O)O/N=C(\N)Cc1cccc2ccccc12 [CBK266275],119.765%
19,CCn1nc(C)c(-c2cncn2CCCOc2cccc(C)c2)c1C [CBK281997],144.583%
20,Cc1cc(-c2cn3ccnc3c(NC3CC3)n2)cc(C)c1O [CBK066747],87.7036%
21,CN1CCN(CCOC(=O)N2CCSCC2)CC1 [CBK200288],109.851%
22,O=C(O)c1cc(S(=O)(=O)Nc2ccc(F)cc2)c(Cl)cc1Cl [CBK113685],107.468%
23,CCN1CCN(C(=O)c2ccc3nc(-c4ccccc4)c(-c4ccccc4)nc3c2)CC1 [CBK269090],149.273%
24,O=C1Nc2ccc(-c3ccc4c(c3)OCO4)cc2C(=O)N2CCN(C(=O)CO)C[C@H]12 [CBK289593],107.634%
25,CCC1CCCCN1C(=O)c1ccc(C)c(Cl)c1 (stereo not shown) [CBK082756],79.8484%
26,O=C(NCc1ccc2c(c1)OCO2)N1CCCCC1CO (stereo not shown) [CBK156166],113.453%
27,Cc1cc(C(F)(F)F)nn1CCNC(=O)c1cn2ccsc2n1 [CBK307260],94.9562%

row,Compound,% of control remaining
1,CC(=O)Nc1ccc(-c2cc(Nc3ccc(NC(=O)c4ccc(N)cc4)cc3)ncn2)cc1 [CBK091103],118.817%
2,COc1ccc(CCN(C(C)=O)C2CC(=O)N(c3ccccc3)C2=O)cc1OC (stereo not shown) [CBK262349],123.6%
3,O=C(NCc1ccc(Cl)cc1)C1CCCN1c1nc(O)cc(C(F)(F)F)n1 (stereo not shown) [CBK003706],114.15%
4,CC(C)Nc1cc(SCc2cccc(C(F)(F)F)c2)ncn1 [CBK107161],110.114%
5,CCOc1ccc(NC(c2ccccc2)c2cc3cc(OC)ccc3[nH]c2=O)cc1 (stereo not shown) [CBK286157],104.489%
6,O=C(O)c1ccc2c(c1)C(=O)N(Cc1cccc(CN3C(=O)c4ccc(C(=O)O)cc4C3=O)c1)C2=O [CBK265556],101.7%
7,CCn1nc(C)c(-c2cncn2CCCN2CCCCC2)c1C [CBK281769],155.286%
8,O=C(NC(c1cccnc1)c1ccc2c(c1)OCO2)C1CCN(CCc2cccs2)CC1 (stereo not shown) [CBK148503],112.826%
9,Cc1cc2ccccc2n2c(=O)n(CC(=O)N3CCCCC3)nc12 [CBK283878],140.663%
10,Cc1nn(Cc2ccccc2)c(C)c1CNC(=O)c1nc(Cl)ccc1Cl [CBK297928],122.003%
11,CCOc1nc(NCCC2=CCCCC2)nc(OCC)n1 [CBK027387],110.419%
12,CCCCN(C)c1c(C)nc2c(OCc3ccc(S(=O)(=O)N(C)C)cc3)cccn12 [CBK147189],108.029%
13,CC(NS(=O)(=O)c1ccc(CCC(=O)N2CCN(C)CC2)cc1)c1ccccc1 (stereo not shown) [CBK266868],152.637%
14,NC(=O)CN1CCCN(c2ccnc(OCC3COc4ccccc4O3)n2)CC1 (stereo not shown) [CBK083236T],106.846%
15,COc1cccc(CNc2ccc(N3CCCCC3)cc2)c1OCc1cccs1 [CBK074531],52.6596%
16,O=C(NCc1ccncc1)c1csc2c(C(F)(F)F)cc(N3CCN(Cc4ccccc4)CC3)nc12 [CBK034294T],98.1982%
17,Cc1nc(O)cc(C2CCN(C(=O)c3csc4c3CCCC4)CC2)n1 [CBK307618],99.6554%
18,O[C@@H]1CN(Cc2ccc(F)c(F)c2)CC[C@H]1NC1CC1 [CBK283319],119.618%
19,C=CCOc1ccccc1OCCCN1CCN(C)CC1 [CBK269714C],119.567%
20,O=C(Nc1ccc(F)cc1)c1sccc1NS(=O)(=O)Cc1ccccc1 [CBK004574],88.0316%
21,Cc1ccc(S(=O)(=O)NC(C)C(=O)Nc2cc(C(F)(F)F)ccc2Cl)cc1 (stereo not shown) [CBK266546],130.389%
22,Cn1nccc1CN1CCCC(COc2ccc(F)cc2)C1 (stereo not shown) [CBK281899],108.521%
23,COCCN1CC(CNC(=O)c2cccc(F)c2O)CC1=O (stereo not shown) [CBK304386],106.465%
24,O=[N+]([O-])c1ccccc1S(=O)(=O)Nc1cc(C(F)(F)F)ccc1Cl [CBK015721],104.698%
25,S=C(NCCCN1CCOCC1)Nc1ccccc1Cl [CBK264599],100%
26,O=C(O)c1ccc(S(=O)(=O)N2CCOCC2)cc1 [CBK287201],142.538%
27,Cn1cc(CN2CCN(CC3(c4ccccc4)CC3)CC2)cn1 [CBK282794],101.718%

row,Compound,% of control remaining
1,O=C(Nc1cccc2cccnc12)c1ccc([N+](=O)[O-])o1 [CBK268007],78.5085%
2,CC(=O)Nc1ccc(F)c(NC(=O)NCC2CCOC2)c1 (stereo not shown) [CBK304388],115.847%
3,CC(=O)Nc1ccc(-c2ccc(C(=O)NCc3ccc(OC(F)(F)F)cc3)cn2)cc1 [CBK158830],117.073%
4,CC(=O)c1ccc(-c2ccc(C(=O)N(C)CCN(C)C)c(N(C)C)n2)s1 [CBK106071],127.972%
5,Cc1nc(S(=O)(=O)N2CCC(C(=O)N3CCCCC3)CC2)cn1C [CBK305963],93.6163%
6,CC(C)c1ccc(/C=C/C(=O)NCc2ccccc2)cc1 [CBK149635],105.236%
7,OCCCN1CCC(Oc2cncc(OCCN3CCOCC3)n2)C1 (stereo not shown) [CBK084494],105.969%
8,CS(=O)(=O)N1C[C@@H]2CCCCN(Cc3cccc(F)c3F)[C@@H]2C1 [CBK285513],108.559%
9,COc1cc2c(cc1NC(=O)C/C(C)=N/NC(=O)c1ccccc1F)oc1ccccc12 [CBK262437],100%
10,CCOC(=O)C(Cc1ccccc1)NC(=O)c1ccc(C)nc1 (stereo not shown) [CBK305952],142.692%
11,COc1ccc2c(c1)C1(CC(=O)N(CC(=O)N(C)C)C1=O)C(=O)N2CC(=O)c1ccccc1 (stereo not shown) [CBK075913],102.662%
12,O=C(c1ccccc1Br)N1CCCCC1 [CBK028504],101.569%
13,Cc1ccc(N(CC(=O)Nc2cccnc2)S(=O)(=O)c2ccc(F)cc2)cc1 [CBK263332],102.587%
14,CC(=O)c1ccc(-c2cnc(Nc3ccc(N4CCOCC4)cc3)c3nccn23)s1 [CBK091231],191.323%
15,O=C(NNC(=O)c1cc2ccccc2cc1O)Nc1cccc([N+](=O)[O-])c1 [CBK266882],128.234%
16,NS(=O)(=O)c1cc(C(=O)O)ccc1Cl [CBK113676],181.985%
17,Cc1nc(N2CCCCC2)ncc1C(=O)NCc1nonc1C [CBK307243],102.884%
18,Cn1nc(C2CCCN(C(=O)c3cccc(F)c3)C2)c2cccnc21 (stereo not shown) [CBK282155],138.872%
19,CC1C(=O)N(c2ccc(Cl)c(Cl)c2)C(=N)N1c1nc(N(C)C)nc(N(C)C)n1 (stereo not shown) [CBK263182],134.804%
20,CC(=O)N1CCCC(c2[nH]c3cccnc3c2CN(C)C)C1 (stereo not shown) [CBK283469],120.823%
21,O=C(Nc1cccc(-c2nnn[nH]2)c1)c1ccc(C2CCCCC2)cc1 [CBK296712],122.882%
22,O=C(c1ccc2ccccc2c1)N1CCC2(CC1)CN(Cc1ccccc1)CCO2 [CBK161118A],119.537%
23,CCn1c(SCC(=O)Nc2c(Cl)cc(Cl)cc2Cl)nnc1-c1ccccc1F [CBK268609],108.893%
24,O=C(Nc1ccc(F)cc1)c1[nH]c2ccccc2c1NS(=O)(=O)c1cc(Cl)sc1Cl [CBK050094],44.4169%
25,Cc1cccc(N2CCN(CCCOc3ccc(F)c(F)c3)CC2)n1 [CBK025158C],125.175%

# A few values from the results shown:
# O=C(Nc1cccc2cccnc12)c1ccc([N+](=O)[O-])o1 [CBK268007] – % of control remaining: 78.5085%
# O=C(Nc1ccc(F)cc1)c1[nH]c2ccccc2c1NS(=O)(=O)c1cc(Cl)sc1Cl [CBK050094] – % of control remaining: 44.4169%
# CS(=O)(=O)N1C[C@@H]2CCCCN(Cc3cccc(F)c3F)[C@@H]2C1 [CBK285513] – % of control remaining: 108.559%
